Assay results reported in publication PMC12483569.
No constants are given. Whether binding was seen depends on the method and setting. Binding seen in cells or lysates may run through a third protein. A yes stands for co-enrichment or nearness to the bait. Other partners may have been found. Where a sequence is shown, tags or fusion partners need not be part of it.

Sequences of proteins named here, by UniProt entry; tags and fusion partners are left off.
UniProt Q6P5F9: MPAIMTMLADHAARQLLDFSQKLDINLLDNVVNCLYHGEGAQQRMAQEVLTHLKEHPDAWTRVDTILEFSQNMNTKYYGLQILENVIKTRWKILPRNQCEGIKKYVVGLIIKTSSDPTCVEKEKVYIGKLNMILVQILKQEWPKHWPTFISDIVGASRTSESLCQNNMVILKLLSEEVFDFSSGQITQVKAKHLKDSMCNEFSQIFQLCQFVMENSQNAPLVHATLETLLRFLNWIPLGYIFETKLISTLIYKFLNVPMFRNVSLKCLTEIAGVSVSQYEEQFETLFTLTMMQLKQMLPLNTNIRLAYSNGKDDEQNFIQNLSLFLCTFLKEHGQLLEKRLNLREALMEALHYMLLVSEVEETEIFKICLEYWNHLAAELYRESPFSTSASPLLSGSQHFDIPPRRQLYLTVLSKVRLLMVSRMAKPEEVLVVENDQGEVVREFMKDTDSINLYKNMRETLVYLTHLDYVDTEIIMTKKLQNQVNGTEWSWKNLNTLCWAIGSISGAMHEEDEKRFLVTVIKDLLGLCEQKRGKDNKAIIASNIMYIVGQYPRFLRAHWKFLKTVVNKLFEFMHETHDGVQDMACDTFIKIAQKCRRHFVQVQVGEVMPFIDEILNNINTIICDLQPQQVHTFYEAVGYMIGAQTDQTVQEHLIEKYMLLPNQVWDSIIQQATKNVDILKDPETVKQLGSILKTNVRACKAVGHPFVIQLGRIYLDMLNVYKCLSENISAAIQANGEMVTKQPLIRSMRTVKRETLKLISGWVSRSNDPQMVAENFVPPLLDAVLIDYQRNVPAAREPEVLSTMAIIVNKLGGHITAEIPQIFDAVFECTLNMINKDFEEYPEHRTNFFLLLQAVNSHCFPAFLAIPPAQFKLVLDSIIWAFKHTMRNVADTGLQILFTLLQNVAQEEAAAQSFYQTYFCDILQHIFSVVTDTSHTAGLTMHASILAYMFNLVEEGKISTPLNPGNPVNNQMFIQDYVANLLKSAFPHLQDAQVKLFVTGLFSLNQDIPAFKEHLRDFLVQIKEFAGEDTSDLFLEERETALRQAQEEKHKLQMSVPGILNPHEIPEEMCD
UniProt P70168: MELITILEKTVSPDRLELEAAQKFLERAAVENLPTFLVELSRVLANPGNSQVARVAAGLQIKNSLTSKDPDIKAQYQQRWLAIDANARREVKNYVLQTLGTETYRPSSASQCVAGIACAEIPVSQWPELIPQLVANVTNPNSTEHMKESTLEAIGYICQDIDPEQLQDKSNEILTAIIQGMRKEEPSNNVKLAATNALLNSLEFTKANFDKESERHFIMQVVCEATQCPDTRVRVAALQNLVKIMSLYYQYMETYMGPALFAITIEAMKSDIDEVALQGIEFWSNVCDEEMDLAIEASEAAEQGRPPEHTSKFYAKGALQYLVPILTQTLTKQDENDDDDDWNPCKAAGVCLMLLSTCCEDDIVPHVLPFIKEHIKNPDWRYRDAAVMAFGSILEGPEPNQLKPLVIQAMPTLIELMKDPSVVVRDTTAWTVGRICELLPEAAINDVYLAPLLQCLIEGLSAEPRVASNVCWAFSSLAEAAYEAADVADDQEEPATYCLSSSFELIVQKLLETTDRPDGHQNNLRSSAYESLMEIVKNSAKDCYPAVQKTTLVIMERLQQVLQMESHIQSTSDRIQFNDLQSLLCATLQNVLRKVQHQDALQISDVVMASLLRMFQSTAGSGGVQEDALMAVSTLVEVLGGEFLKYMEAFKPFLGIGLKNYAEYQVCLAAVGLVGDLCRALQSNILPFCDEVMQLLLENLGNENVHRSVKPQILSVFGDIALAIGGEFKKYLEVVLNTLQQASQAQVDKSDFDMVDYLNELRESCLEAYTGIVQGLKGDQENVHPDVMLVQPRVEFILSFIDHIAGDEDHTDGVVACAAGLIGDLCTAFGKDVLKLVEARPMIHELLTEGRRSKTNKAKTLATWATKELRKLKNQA
UniProt Q3TKT4: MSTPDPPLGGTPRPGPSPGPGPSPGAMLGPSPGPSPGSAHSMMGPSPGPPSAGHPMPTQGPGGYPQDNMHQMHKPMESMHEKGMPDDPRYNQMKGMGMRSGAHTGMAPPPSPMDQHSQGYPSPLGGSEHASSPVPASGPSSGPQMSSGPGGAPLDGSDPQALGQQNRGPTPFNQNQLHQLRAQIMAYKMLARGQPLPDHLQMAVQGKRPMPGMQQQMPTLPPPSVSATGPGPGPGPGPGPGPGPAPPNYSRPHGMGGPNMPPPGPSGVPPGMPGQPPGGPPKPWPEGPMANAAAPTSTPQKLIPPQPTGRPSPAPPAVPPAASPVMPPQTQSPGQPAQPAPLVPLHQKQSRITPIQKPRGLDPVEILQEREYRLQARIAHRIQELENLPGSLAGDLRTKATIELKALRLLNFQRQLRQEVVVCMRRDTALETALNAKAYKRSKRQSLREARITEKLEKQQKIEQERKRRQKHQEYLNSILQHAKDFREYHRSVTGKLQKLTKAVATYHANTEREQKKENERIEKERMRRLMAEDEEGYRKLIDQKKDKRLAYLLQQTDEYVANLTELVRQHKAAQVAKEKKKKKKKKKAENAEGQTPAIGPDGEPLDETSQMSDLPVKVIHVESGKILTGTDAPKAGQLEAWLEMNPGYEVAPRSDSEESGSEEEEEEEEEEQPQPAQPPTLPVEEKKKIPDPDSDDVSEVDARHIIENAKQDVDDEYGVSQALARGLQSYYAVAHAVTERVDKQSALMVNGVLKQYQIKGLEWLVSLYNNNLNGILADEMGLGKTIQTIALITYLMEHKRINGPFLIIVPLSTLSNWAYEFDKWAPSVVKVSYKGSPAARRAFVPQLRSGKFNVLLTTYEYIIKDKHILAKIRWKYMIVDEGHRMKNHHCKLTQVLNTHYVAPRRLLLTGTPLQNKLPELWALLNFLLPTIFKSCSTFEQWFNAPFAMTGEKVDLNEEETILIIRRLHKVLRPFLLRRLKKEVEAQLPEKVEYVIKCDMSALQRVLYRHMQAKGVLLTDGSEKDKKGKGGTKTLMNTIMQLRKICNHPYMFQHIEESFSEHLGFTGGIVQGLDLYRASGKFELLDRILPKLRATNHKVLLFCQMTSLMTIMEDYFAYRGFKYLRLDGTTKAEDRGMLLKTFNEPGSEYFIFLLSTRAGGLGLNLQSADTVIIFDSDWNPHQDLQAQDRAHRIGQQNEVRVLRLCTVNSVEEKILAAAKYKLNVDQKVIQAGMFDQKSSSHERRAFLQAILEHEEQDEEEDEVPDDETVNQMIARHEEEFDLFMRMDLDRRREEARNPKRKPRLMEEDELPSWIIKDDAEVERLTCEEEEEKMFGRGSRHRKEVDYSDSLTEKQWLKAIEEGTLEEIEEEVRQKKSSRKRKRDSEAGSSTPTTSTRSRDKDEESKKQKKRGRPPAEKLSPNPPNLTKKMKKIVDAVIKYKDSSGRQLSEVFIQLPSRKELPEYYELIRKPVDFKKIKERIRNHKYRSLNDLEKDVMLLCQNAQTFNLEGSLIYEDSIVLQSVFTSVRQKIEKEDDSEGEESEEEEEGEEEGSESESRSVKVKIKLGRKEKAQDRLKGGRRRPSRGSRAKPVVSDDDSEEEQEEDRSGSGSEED

biological target: T1, SGK3-TurboID fusion used for proximity labeling (UniProt Q9ERE3); experiment: proximity labelling; TurboID-based proximity labeling combined with mass spectrometry; SGK3-TurboID as bait; biotin-labeled proteins compared between cells treated with MDI for 0 and 3 days
T1 sequence: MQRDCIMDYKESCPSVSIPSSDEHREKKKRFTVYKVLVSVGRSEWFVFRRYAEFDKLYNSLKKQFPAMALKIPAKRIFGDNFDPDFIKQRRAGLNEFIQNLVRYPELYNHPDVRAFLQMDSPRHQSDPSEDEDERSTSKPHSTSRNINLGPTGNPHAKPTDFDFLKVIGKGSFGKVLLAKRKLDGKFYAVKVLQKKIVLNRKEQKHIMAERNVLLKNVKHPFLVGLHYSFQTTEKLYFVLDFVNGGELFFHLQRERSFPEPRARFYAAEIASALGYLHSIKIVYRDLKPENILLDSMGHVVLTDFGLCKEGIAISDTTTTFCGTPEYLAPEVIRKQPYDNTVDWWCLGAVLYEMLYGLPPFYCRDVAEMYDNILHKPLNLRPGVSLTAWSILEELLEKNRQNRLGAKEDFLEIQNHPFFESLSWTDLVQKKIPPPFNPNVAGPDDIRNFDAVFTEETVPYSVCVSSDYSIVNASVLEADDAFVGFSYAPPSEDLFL

Row | binding | Substance
1 | binds | exportin-1 (from UniProt Q6P5F9 1-1071)
2 | binds | Importin β1 (from UniProt P70168 1-876)
3 | binds | SMARCA4 (BRG1), core subunit of the BAF (SWI/SNF) complex, in differentiating SVF cells (from UniProt Q3TKT4 1-1613)
